Measured values from patent publication US9138495B2, “Conjugates and their uses in molecular imaging” (King's College London, priority 2010, dated 2015).

Test: Radiolabelling yield with ^67Ga by TLC analysis
Conditions: CP256: PBS, 25° C., DOTA: acetate, 80° C.

SMILES	Radiotracer labelling yield (ligand concentration 10 nM) [%]	Radiotracer labelling yield (ligand concentration 100 nM) [%]	Radiotracer labelling yield (ligand concentration 1 μM) [%]	Radiotracer labelling yield (ligand concentration 10 μM) [%]	Radiotracer labelling yield (ligand concentration 100 μM) [%]	Radiotracer labelling yield (ligand concentration 1 mM) [%]
CC(=O)NC(CCC(=O)NCc1c(O)c(=O)cc(C)n1C)(CCC(=O)NCc1c(O)c(=O)cc(C)n1C)CCC(=O)NCc1c(O)c(=O)cc(C)n1C.Cl.Cl.Cl [CP256, 4-Acetylamino-4-{2-[(3-hydroxy-1,6-dimethyl-4-oxo-1,4-dihydro-pyridin-2-ylmethyl)-carbamoyl]-ethyl}-heptanedioic acid bis-[(3-hydroxy-1,6-dimethyl-4-oxo-1,4-dihydro-pyridin-2-ylmethyl)-amide]tris hydrochloride salt]	0	0	84	100	100	100
O=C(O)CN1CCN(CC(=O)O)CCN(CC(=O)O)CCN(CC(=O)O)CC1 [DOTA, 1,4,7,10-tetraazacyclododecane-N,N′,N″,N′″-tetraacetic acid, reference compound]	0	0	0	35	100	100
